Data as given in PubChem BioAssay AID1259259 (Sanger Institute, 2017).

Aim: 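Kinome siRNA search for kinases essential alone or combined with trametinib, cetuximab or BYL719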 (primary screen)
System: SW1463 human colorectal cancer cells
Knock-down reagent: siRNA pool against human genes
Conditions: DMSO vehicle, or one anchor drug: BYL719 at 1 µM, cetuximab at 5 µg/ml, or trametinib at 10 nM
Detection: 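Viability as fraction of control pool 2 (non-targeting), replicate mean; knock-down robust z-score without any drug; synergy score averaged for each anchor drug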
Reading the numbers: robust z-score, knock-down alone: higher = more viable cells after knock-down
Rule for the call: 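a robust z-score under -3 for knock-down with no drug marks the gene as essential, meaning viability loss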
Calls: active = essential: viability loss from knock-down alone; inactive = no change from knock-down alone
In all, the deposit lists 794 reagents; below is an unselected part. Over the whole deposit, 9 (1.1%) were called active. 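Calls rest on knock-down alone, not drug synergy; viability values seem capped at 1.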 Not all columns of the deposit are shown. Not stated in the record: the amount of reagent, the time to read-out.

With MAP3K8, what does the deposit list?
robust z-score, knock-down alone: -0.783; call: inactive

With GAK, how do the results read?
robust z-score, knock-down alone: 0.734; call: inactive

With EIF2AK1, what was measured?
robust z-score, knock-down alone: 0.223; call: inactive

With NME7, how do the results read?
robust z-score, knock-down alone: 1.13; call: inactive

How did the screen score VRK3?
robust z-score, knock-down alone: -0.795; call: inactive

What did the screen give for STK11?
robust z-score, knock-down alone: -0.463; call: inactive

For RPS6KL1, how do the results read?
robust z-score, knock-down alone: 0.661; call: inactive

How did the screen score PRKCA?
robust z-score, knock-down alone: 0.198; call: inactive

With SIK2, what was measured?
robust z-score, knock-down alone: -0.674; call: inactive

For STK33, how do the results read?
robust z-score, knock-down alone: -1.97; call: inactive

Which result is listed for PRKACB?
robust z-score, knock-down alone: 0.863; call: inactive

How did the screen score TAOK1?
robust z-score, knock-down alone: 1.13; call: inactive

For RBM10, what was measured?
robust z-score, knock-down alone: -0.128; call: inactive

How did the screen score PAK3?
robust z-score, knock-down alone: 1.13; call: inactive

How did the screen score LATS2?
robust z-score, knock-down alone: 1.13; call: inactive

For SRGAP3, what was measured?
robust z-score, knock-down alone: 1.13; call: inactive

For MAP3K1, what does the deposit list?
robust z-score, knock-down alone: 0.184; call: inactive

What did the screen give for CHKB?
robust z-score, knock-down alone: -0.0247; call: inactive

With TRPM6, how do the results read?
robust z-score, knock-down alone: 1.13; call: inactive
